Results are given in words; binding and its absence hold for the method and conditions named.

From publication PMC8825819, “Structure of Escherichia coli O157:H7 bacteriophage CBA120 tailspike protein 4 baseplate anchor and tailspike assembly domains (TSP4-N)” (Scientific Reports, 2022) come the findings set out here.

Test [1] addresses T1, Tailspike protein 2 of bacteriophage CBA120 (bacteriophage CBA120) (UniProt G3M190).
T1 sequence: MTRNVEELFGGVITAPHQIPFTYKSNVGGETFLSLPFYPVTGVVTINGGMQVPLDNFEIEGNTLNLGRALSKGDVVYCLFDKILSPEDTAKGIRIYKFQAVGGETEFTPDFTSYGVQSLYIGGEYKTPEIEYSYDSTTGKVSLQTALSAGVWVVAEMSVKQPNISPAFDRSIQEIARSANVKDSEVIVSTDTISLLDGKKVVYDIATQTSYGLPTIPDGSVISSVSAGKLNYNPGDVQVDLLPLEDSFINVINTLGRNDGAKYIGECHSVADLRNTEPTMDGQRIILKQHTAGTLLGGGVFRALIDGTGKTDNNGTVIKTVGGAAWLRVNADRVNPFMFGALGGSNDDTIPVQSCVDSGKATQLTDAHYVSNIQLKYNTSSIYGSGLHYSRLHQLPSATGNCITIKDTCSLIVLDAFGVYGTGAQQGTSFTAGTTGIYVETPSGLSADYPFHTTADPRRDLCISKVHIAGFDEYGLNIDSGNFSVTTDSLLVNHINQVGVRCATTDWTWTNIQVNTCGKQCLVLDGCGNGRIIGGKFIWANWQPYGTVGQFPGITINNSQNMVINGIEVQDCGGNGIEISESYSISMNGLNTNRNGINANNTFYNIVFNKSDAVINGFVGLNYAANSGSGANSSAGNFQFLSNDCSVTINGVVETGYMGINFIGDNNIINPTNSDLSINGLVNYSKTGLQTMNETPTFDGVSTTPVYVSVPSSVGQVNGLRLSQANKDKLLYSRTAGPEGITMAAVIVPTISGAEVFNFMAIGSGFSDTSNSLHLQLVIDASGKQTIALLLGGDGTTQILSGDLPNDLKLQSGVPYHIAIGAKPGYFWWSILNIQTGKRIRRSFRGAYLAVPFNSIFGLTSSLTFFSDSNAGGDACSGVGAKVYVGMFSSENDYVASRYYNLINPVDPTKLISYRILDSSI
Put plainly: AUC; sedimentation velocity of single proteins and of mixtures, PBS pH 7.4, 20 °C, absorbance at 280 nm, 30-50 krpm; c(s) by SEDFIT; Kd and koff by Lamm equation modelling with a two-site heterogeneous association model A + B + B = AB + B = ABB (A: TSP4-N335 hexamer, B: partner TSP trimer; two symmetric sites, no cooperativity); both purified.

Test [2] deals with T2, Tailspike protein 3 of bacteriophage CBA120 (bacteriophage CBA120) (UniProt G3M191).
T2 sequence: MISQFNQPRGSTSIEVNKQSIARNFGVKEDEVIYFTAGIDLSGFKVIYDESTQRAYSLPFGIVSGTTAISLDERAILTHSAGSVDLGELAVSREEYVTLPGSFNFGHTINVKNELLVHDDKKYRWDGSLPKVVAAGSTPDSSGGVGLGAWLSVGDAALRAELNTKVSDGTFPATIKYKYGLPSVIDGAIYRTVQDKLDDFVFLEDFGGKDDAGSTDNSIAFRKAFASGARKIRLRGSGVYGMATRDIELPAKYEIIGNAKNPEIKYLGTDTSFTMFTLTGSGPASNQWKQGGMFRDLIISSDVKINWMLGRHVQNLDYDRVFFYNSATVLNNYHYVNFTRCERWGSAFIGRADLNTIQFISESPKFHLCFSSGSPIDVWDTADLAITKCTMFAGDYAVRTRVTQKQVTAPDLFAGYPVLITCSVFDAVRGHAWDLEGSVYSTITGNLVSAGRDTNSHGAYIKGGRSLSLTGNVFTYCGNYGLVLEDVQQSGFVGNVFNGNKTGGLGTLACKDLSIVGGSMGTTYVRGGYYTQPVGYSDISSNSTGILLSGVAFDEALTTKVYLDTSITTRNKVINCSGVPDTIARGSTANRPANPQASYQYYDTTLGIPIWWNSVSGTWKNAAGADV
The test is described as above.

B1: Tailspike protein 3 of bacteriophage CBA120 (natural protein, UniProt G3M191 1-627, looked up)
chain: T2 sequence
notes: Trimer and hexamer by SV (MWcalc of the trimer 206 kDa); also called TSP3
B1: the binding result in test [1] is “no binding (tested: 1.5 μM each)”.

B2: Tailspike protein 1 of bacteriophage CBA120 (natural protein)
chain: MNEMFSQGGKGSTGILTNKQAVARHFGVKQSEVVYFSVGVDLGGYKVIYDKETQRAYSLPVGIASGTTAVSLSTAAVLVHSAGSVDLGSLAVSREEYVTLPGSFDSGSTLNVKNELLTYTDGKYRWDGILPKTVAPGSTPASTGGVGLGAWISVGDASLRTQLANGDGSLIGIHPQGTLNNVLTVRTPEQYNAVGDGIADDTSKLKEMLSDINNVPETLPDAAAVNSYMEQVAVKIDLTKLYRFTETLYIPPGVSIEIPTSNFFTRECKQGLFYDPVDKNTAAISLMVYRKQPDGSYKLNKDVDYYPTGLDIDNGDAITCARKIDINNLNLITAPGVKVGVKWIGGAGCTTKGLSIGENTGSDITTARLPRVGLLQSASWGSIHENLRILYKTQGAVFIDSNGGAAVNNAYISRLGNTNGELEQAVYKPAGFTEVGDVAVTQFAGSEVKFNSPIIEQASFDFVHAGRDTDSYGLFMVDKPHIESSGGKKKHSFYLINTSSNVTLSGVGLSGQDPDLDSMYFLKNCPETARNVVRGQMPISGVKLVRGTGNYPTLVLDCTNMGSQFQFGEVGDIFYIKDVVGVKADTLYIDPVNGNNYNWGTNGTKPIRELTNIAKICQLFRCKSVYLNAGESVITSNTELPMVVFEGPGSLKANSGSSFLIKAGGTLSLIGLSGISTDGGHMFRVSTVEKVNIHTNCSVNAGAAYVVLSEVQGNIEYRQLFYSVNCSKYIGATAGQTIAGIMVKTATRPTGIDAAPVDGNVSLTYKIIES
notes: Homotrimer by SV (MWcalc of the trimer 248 kDa); also called TSP1
For the molecule B2, the binding entry in test [1] and in test [2] was “no binding (tested: 1.5 μM each)” in each case.
